# Measured values as given in ChEMBL document CHEMBL2218924, “A broad activity screen in support of a chemogenomic map for kinase signalling research and drug discovery” (Biochem J, 2013).
# Chains of the proteins cited; added tags and fusions are not shown. Lines headed by an entry give the natural chain unless they say otherwise; changes in a name come on top.
# UniProt Q9HBY8: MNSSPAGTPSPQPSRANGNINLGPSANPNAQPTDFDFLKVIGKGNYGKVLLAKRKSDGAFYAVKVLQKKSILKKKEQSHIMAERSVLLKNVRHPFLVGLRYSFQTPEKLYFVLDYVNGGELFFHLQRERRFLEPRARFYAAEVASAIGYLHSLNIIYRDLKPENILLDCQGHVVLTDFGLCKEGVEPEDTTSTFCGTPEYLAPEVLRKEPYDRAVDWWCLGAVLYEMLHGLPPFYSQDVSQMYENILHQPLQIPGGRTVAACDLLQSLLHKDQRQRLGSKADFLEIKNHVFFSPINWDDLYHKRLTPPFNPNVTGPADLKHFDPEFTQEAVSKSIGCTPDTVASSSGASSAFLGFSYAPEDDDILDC
# UniProt Q96BR1: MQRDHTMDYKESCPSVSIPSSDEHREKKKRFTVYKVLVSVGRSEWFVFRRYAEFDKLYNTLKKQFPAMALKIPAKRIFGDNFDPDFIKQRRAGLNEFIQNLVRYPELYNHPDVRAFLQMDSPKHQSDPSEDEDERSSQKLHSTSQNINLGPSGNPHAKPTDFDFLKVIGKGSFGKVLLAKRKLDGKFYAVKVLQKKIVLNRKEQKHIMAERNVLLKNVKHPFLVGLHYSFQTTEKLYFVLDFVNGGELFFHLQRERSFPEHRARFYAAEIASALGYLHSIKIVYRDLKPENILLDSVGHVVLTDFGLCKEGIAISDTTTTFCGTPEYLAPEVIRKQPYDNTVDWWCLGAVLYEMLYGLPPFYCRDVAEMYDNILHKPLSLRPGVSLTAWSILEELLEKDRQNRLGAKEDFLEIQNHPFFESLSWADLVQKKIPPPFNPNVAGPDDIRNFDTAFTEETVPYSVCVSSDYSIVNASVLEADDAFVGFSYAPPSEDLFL
# UniProt O43318: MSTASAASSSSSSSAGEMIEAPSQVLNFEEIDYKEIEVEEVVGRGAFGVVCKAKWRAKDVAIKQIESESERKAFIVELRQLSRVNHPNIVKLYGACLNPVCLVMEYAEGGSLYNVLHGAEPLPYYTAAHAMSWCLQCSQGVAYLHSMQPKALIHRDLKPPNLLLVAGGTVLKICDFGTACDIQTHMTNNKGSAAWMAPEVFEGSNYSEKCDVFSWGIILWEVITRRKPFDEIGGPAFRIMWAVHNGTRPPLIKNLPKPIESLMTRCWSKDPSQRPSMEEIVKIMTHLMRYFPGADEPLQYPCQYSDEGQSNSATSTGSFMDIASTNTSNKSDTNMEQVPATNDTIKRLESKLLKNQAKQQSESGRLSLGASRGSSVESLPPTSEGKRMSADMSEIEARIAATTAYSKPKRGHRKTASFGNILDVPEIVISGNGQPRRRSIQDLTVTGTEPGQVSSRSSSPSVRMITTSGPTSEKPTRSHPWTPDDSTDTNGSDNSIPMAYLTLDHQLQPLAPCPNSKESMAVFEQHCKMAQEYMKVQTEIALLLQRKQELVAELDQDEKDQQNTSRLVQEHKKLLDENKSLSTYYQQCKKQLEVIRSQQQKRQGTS
# UniProt O15111: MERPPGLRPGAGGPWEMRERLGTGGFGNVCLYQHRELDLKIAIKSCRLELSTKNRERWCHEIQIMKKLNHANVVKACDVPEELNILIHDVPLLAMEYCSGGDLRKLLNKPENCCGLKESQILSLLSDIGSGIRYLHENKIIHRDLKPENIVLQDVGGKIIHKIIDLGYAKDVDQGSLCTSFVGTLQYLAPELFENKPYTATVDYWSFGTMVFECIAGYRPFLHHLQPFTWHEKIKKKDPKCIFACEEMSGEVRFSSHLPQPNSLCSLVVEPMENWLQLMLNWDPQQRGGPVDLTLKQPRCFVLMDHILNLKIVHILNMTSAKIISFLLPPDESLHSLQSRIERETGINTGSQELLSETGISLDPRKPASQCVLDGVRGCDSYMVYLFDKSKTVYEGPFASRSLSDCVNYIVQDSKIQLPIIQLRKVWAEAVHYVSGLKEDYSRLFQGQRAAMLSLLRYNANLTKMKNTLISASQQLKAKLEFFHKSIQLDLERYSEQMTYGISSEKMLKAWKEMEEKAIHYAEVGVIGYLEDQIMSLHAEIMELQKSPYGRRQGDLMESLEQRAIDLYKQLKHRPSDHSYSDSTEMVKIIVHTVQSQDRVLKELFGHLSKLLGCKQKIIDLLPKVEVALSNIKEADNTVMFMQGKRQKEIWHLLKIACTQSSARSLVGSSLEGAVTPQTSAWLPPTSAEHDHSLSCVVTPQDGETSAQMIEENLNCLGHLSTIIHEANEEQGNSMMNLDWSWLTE
# UniProt P06213, whole entry: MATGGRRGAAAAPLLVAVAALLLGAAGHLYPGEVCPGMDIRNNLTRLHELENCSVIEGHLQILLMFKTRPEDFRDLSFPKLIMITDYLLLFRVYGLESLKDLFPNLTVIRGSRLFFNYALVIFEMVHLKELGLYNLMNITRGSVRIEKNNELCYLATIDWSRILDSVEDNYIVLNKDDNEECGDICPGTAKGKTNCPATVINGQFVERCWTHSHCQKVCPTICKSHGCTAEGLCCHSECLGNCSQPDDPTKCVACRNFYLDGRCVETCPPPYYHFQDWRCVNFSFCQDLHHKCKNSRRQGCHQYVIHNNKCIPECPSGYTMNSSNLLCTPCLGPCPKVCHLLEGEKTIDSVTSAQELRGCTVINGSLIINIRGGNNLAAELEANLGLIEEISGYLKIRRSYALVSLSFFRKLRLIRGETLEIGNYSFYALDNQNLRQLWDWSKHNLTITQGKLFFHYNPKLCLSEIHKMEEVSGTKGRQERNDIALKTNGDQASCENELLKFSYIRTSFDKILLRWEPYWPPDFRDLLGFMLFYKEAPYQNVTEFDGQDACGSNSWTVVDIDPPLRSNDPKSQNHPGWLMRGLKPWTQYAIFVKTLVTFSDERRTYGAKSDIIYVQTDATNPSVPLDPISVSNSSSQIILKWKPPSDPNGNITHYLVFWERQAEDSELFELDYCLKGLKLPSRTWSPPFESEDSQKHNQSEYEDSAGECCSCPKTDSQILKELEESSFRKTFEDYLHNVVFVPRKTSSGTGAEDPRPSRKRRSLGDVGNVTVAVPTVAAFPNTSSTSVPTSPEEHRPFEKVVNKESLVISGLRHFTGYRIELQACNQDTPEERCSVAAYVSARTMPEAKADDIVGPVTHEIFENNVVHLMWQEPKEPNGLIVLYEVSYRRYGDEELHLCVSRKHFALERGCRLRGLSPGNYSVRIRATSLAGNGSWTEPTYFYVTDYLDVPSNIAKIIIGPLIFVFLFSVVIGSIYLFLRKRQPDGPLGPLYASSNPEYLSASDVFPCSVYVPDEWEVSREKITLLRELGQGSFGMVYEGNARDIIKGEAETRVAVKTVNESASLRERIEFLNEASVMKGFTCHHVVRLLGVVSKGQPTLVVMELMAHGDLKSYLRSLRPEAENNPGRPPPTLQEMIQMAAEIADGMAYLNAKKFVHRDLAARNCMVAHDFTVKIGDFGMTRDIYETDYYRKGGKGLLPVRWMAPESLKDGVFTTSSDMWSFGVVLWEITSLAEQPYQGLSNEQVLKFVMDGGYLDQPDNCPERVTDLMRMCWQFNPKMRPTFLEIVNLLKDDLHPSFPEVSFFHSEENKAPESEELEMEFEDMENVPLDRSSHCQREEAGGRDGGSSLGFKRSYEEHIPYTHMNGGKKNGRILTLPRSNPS
# UniProt Q9NWZ3, whole entry: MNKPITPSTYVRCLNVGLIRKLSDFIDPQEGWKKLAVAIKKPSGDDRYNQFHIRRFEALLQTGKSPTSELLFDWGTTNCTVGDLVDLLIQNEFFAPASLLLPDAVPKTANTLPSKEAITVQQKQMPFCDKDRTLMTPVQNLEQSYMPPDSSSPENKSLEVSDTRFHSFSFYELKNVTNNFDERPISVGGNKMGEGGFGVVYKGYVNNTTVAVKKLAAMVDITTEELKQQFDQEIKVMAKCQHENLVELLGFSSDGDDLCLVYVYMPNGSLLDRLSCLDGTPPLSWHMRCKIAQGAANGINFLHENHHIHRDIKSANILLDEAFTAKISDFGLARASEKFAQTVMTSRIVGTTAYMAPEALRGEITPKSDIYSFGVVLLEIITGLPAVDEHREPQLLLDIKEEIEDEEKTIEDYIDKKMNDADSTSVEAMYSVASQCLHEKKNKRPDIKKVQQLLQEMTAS
# UniProt P14616: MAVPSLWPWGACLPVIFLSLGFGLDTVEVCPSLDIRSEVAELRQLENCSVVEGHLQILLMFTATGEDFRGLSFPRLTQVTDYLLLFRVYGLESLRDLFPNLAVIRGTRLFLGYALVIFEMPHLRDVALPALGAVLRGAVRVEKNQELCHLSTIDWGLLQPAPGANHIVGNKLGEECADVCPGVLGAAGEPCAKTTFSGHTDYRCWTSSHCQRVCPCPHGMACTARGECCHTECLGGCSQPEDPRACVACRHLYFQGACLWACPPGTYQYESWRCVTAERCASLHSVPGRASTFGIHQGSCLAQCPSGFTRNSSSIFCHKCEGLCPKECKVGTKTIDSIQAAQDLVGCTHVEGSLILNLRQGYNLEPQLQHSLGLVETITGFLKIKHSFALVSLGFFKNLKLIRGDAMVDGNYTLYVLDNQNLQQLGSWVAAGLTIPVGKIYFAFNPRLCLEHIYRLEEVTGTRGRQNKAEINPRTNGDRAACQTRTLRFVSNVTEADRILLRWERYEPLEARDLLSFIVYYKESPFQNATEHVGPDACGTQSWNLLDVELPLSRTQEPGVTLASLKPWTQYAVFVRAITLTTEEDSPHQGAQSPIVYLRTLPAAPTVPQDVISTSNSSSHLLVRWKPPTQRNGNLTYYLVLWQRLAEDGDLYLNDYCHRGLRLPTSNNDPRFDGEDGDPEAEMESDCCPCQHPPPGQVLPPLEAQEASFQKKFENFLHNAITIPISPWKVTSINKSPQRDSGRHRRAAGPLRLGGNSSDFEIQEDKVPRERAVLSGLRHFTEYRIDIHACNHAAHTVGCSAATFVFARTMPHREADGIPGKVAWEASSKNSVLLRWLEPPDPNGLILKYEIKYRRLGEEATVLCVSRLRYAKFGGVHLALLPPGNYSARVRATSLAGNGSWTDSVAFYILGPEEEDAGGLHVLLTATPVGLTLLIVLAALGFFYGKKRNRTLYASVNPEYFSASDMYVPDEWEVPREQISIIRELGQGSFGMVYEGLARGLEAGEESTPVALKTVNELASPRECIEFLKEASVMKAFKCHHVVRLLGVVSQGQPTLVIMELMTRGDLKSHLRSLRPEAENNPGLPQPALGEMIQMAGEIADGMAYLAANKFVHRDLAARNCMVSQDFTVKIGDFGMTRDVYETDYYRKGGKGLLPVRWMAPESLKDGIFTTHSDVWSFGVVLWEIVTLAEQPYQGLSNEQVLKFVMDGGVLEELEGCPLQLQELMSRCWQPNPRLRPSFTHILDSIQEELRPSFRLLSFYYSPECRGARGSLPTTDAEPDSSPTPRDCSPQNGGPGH
# UniProt Q08881: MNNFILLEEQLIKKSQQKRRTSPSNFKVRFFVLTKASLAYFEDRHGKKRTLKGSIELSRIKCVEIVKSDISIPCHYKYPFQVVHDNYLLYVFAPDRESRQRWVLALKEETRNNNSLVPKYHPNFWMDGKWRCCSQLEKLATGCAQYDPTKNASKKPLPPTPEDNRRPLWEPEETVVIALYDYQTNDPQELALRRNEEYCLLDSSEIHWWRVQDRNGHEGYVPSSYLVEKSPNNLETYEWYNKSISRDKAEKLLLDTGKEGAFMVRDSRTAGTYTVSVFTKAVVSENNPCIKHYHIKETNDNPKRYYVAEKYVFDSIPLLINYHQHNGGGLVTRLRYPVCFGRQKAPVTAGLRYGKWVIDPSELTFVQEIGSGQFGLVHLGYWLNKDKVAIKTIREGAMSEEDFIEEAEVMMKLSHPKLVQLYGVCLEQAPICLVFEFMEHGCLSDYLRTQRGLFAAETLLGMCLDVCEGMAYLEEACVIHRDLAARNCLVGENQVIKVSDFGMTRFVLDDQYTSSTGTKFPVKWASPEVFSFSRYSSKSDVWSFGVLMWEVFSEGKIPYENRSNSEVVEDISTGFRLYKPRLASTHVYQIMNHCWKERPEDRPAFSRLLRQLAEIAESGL
# UniProt P45983: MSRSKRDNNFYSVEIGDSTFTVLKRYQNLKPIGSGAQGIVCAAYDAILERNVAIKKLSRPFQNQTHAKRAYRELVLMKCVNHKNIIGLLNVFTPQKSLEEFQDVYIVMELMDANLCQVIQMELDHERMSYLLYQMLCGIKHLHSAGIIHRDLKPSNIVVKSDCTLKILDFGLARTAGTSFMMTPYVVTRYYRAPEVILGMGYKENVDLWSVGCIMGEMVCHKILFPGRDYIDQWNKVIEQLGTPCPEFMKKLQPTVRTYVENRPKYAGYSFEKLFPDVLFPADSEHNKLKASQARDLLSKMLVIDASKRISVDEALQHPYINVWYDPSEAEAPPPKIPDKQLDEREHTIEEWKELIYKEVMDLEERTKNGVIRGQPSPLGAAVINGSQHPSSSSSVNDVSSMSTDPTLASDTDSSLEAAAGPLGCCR
# For some assays here: The strong results were mostly taken out for another list; the other results follow. This is a selection; strong and weak results do not stand in their true shares.
# How the values were obtained:
# [1] = target: Mitogen-activated protein kinase 12 (Homo sapiens) (UniProt P53778); settings: at 1 µM
# [2] = target: Mitogen-activated protein kinase 12 (Homo sapiens) (UniProt P53778); settings: at 10 µM
# [3] = target: Mitogen-activated protein kinase 13 (Homo sapiens) (UniProt O15264); settings: at 1 µM
# [4] = target: Mitogen-activated protein kinase 13 (Homo sapiens) (UniProt O15264); settings: at 10 µM
# [5] = target: Serine/threonine-protein kinase Sgk1 (Homo sapiens) (UniProt O00141); settings: at 1 µM
# [6] = target: Serine/threonine-protein kinase Sgk1 (Homo sapiens) (UniProt O00141); settings: at 10 µM
# [7] = target: Serine/threonine-protein kinase Sgk2 (Homo sapiens) (UniProt Q9HBY8); settings: at 1 µM
# [8] = target: Serine/threonine-protein kinase Sgk2 (Homo sapiens) (UniProt Q9HBY8); settings: at 10 µM
# [9] = target: Serine/threonine-protein kinase Sgk3 (Homo sapiens) (UniProt Q96BR1); settings: at 1 µM
# [10] = target: Serine/threonine-protein kinase Sgk3 (Homo sapiens) (UniProt Q96BR1); settings: at 10 µM
# [11] = target: Serine/threonine-protein kinase SIK1 (Homo sapiens) (UniProt P57059); settings: at 1 µM
# [12] = target: Serine/threonine-protein kinase SIK1 (Homo sapiens) (UniProt P57059); settings: at 10 µM
# [13] = target: SRSF protein kinase 1 (Homo sapiens) (UniProt Q96SB4); settings: at 1 µM
# [14] = target: SRSF protein kinase 1 (Homo sapiens) (UniProt Q96SB4); settings: at 10 µM
# [15] = target: SRSF protein kinase 2 (Homo sapiens) (UniProt P78362); settings: at 1 µM
# [16] = target: SRSF protein kinase 2 (Homo sapiens) (UniProt P78362); settings: at 10 µM
# [17] = target: Serine/threonine-protein kinase 33 (Homo sapiens) (UniProt Q9BYT3); settings: at 1 µM
# [18] = target: Serine/threonine-protein kinase 33 (Homo sapiens) (UniProt Q9BYT3); settings: at 10 µM
# [19] = target: Serine/threonine-protein kinase PLK2 (Homo sapiens) (UniProt Q9NYY3); settings: at 1 µM
# [20] = target: Serine/threonine-protein kinase PLK2 (Homo sapiens) (UniProt Q9NYY3); settings: at 10 µM
# [21] = target: Tyrosine-protein kinase SYK (Homo sapiens) (UniProt P43405); settings: at 1 µM
# [22] = target: Tyrosine-protein kinase SYK (Homo sapiens) (UniProt P43405); settings: at 10 µM
# [23] = target: Mitogen-activated protein kinase kinase kinase 7 (Homo sapiens) (UniProt O43318); settings: at 1 µM
# [24] = target: Mitogen-activated protein kinase kinase kinase 7 (Homo sapiens) (UniProt O43318); settings: at 10 µM
# [25] = target: Serine/threonine-protein kinase TAO1 (Homo sapiens) (UniProt Q7L7X3); settings: at 1 µM
# [26] = target: Serine/threonine-protein kinase TAO1 (Homo sapiens) (UniProt Q7L7X3); settings: at 10 µM
# [27] = target: Serine/threonine-protein kinase TAO2 (Homo sapiens) (UniProt Q9UL54); settings: at 1 µM
# [28] = target: Serine/threonine-protein kinase TAO2 (Homo sapiens) (UniProt Q9UL54); settings: at 10 µM
# [29] = target: Serine/threonine-protein kinase TAO3 (Homo sapiens) (UniProt Q9H2K8); settings: at 1 µM
# [30] = target: Serine/threonine-protein kinase TAO3 (Homo sapiens) (UniProt Q9H2K8); settings: at 10 µM
# [31] = target: Serine/threonine-protein kinase TBK1 (Homo sapiens) (UniProt Q9UHD2); settings: at 1 µM
# [32] = target: Serine/threonine-protein kinase TBK1 (Homo sapiens) (UniProt Q9UHD2); settings: at 10 µM
# [33] = target: TGF-beta receptor type-1 (Homo sapiens) (UniProt P36897); settings: at 1 µM
# [34] = target: TGF-beta receptor type-1 (Homo sapiens) (UniProt P36897); settings: at 10 µM
# [35] = target: Insulin-like growth factor 1 receptor (Homo sapiens) (UniProt P08069); settings: at 1 µM
# [36] = target: Insulin-like growth factor 1 receptor (Homo sapiens) (UniProt P08069); settings: at 10 µM
# [37] = target: Inhibitor of nuclear factor kappa-B kinase subunit alpha (Homo sapiens) (UniProt O15111); settings: at 1 µM
# [38] = target: Inhibitor of nuclear factor kappa-B kinase subunit alpha (Homo sapiens) (UniProt O15111); settings: at 10 µM
# [39] = target: Inhibitor of nuclear factor kappa-B kinase subunit beta (Homo sapiens) (UniProt O14920); settings: at 1 µM
# [40] = target: Inhibitor of nuclear factor kappa-B kinase subunit beta (Homo sapiens) (UniProt O14920); settings: at 10 µM
# [41] = target: Insulin receptor (Homo sapiens) (UniProt P06213); settings: at 1 µM
# [42] = target: Insulin receptor (Homo sapiens) (UniProt P06213); settings: at 10 µM
# [43] = target: Insulin receptor (Homo sapiens) (UniProt P06213); settings: at 1 µM; remark: listed apart in the source
# [44] = target: Insulin receptor (Homo sapiens) (UniProt P06213); settings: at 10 µM; remark: listed apart in the source
# [45] = target: Interleukin-1 receptor-associated kinase 1 (Homo sapiens) (UniProt P51617); settings: at 1 µM
# [46] = target: Interleukin-1 receptor-associated kinase 1 (Homo sapiens) (UniProt P51617); settings: at 10 µM
# [47] = target: Interleukin-1 receptor-associated kinase 4 (Homo sapiens) (UniProt Q9NWZ3); settings: at 1 µM
# [48] = target: Interleukin-1 receptor-associated kinase 4 (Homo sapiens) (UniProt Q9NWZ3); settings: at 10 µM
# [49] = target: Insulin receptor-related protein (Homo sapiens) (UniProt P14616); settings: at 1 µM
# [50] = target: Insulin receptor-related protein (Homo sapiens) (UniProt P14616); settings: at 10 µM
# [51] = target: Tyrosine-protein kinase ITK/TSK (Homo sapiens) (UniProt Q08881); settings: at 1 µM
# [52] = target: Tyrosine-protein kinase ITK/TSK (Homo sapiens) (UniProt Q08881); settings: at 10 µM
# [53] = target: Mitogen-activated protein kinase 8 (Homo sapiens) (UniProt P45983); settings: at 1 µM
# [54] = target: Mitogen-activated protein kinase 8 (Homo sapiens) (UniProt P45983); settings: at 10 µM
# [55] = target: Mitogen-activated protein kinase 9 (Homo sapiens) (UniProt P45984); settings: at 1 µM
# [56] = target: Mitogen-activated protein kinase 9 (Homo sapiens) (UniProt P45984); settings: at 10 µM
compound,measurement,setting,value
O=C1Nc2ccc(-c3cccnc3)cc2/C1=C\c1ccc[nH]1,residual activity,[1],83%
same,residual activity,[2],32%
same,residual activity,[3],73%
same,residual activity,[4],19%
same,residual activity,[5],25%
same,residual activity,[6],1%
same,residual activity,[7],12%
same,residual activity,[8],2%
same,residual activity,[9],58%
same,residual activity,[10],13%
same,residual activity,[11],36%
same,residual activity,[12],10%
same,residual activity,[13],98%
same,residual activity,[14],76%
same,residual activity,[15],96%
same,residual activity,[16],69%
same,residual activity,[17],24%
same,residual activity,[18],4%
same,residual activity,[19],87%
same,residual activity,[20],43%
same,residual activity,[21],90%
same,residual activity,[22],19%
same,residual activity,[23],10%
same,residual activity,[24],-2%
same,residual activity,[25],8%
same,residual activity,[26],2%
same,residual activity,[27],50%
same,residual activity,[28],8%
same,residual activity,[29],13%
same,residual activity,[30],3%
same,residual activity,[31],1%
same,residual activity,[32],0%
same,residual activity,[33],58%
same,residual activity,[34],19%
same,residual activity,[35],88%
same,residual activity,[36],60%
same,residual activity,[37],5%
same,residual activity,[38],0%
same,residual activity,[39],51%
same,residual activity,[40],22%
same,residual activity,[41],71%
same,residual activity,[42],46%
same,residual activity,[43],89%
same,residual activity,[44],56%
same,residual activity,[45],1%
same,residual activity,[46],-1%
same,residual activity,[47],3%
same,residual activity,[48],1%
same,residual activity,[49],122%
same,residual activity,[50],31%
same,residual activity,[51],46%
same,residual activity,[52],8%
same,residual activity,[53],65%
same,residual activity,[54],-5%
same,residual activity,[55],80%
same,residual activity,[56],21%
